Data as given in article PMC8167118.
These are yes or no findings as the source states them, for the method shown. In cells and extracts the contact can be indirect. Binding can be weak; no strength is given.

Target: T1, UBC13 (UBE2N) (mouse (endogenous in BMDCs)) (UniProt P61089)
T1 sequence: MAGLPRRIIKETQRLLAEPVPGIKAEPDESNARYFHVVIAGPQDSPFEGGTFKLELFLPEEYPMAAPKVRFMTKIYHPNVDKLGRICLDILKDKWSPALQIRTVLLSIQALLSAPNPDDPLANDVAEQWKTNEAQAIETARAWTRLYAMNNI
Experiment: co-IP; endogenous proteins of BMDCs, unstimulated or stimulated with TgPFN or LPS in the presence of MG132; lysates precleared, incubated with specific antibodies at 4 °C overnight, Sepharose G beads 2 h, five washes with PBS; WB

For “Pellino (mouse (endogenous in BMDCs)) (enzyme)”, the binding was “binds”.
